# About 170 (0.05%) of roughly 340,000 compounds were called active. The shares of active, inactive and inconclusive entries below differ from those in the screen. Calls follow the shape of the dose curve; as a rule, active = well fitted inhibition curve with a large enough effect in the signal ratio, with a control signal flat (not every such curve was filed as active); inconclusive = small, poorly fitted or top-dose-only effect, or effect the other way, or a change in a side signal; inactive = flat fitted curve, though single readings scatter; the % refers to the signal ratio. Where the call is inconclusive, the potency comes from a doubtful curve fit.
# Test: qHTS Assay to Find Inhibitors of Chronic Active B-Cell Receptor Signaling;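 as to activity change, negative = inhibition: plate controls were basal doxycycline-induced cells for no effect and cells given 10 µM MG132 for full effect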
# Conditions: ABC-DLBCL IkBa-CBG/CBR reporter, luminescence ratio (green luciferase fused to IkBa over red control in TMD8 lymphoma cells), 4 h; activity change, negative = inhibition: at 46.1 µM (top of the series)
# Summary of the method: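 Concentration-response series (up to 46 uM) were applied to TMD8 dual-reporter cells for 4 h at 37C with doxycycline. Green/red ratio, after filter-overlap correction, defined %Activity; red signal alone was normalised to basal cells and zero luminescence.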
# Potency is read from the fitted curve at half-maximal effect.
SMILES,"activity change, negative = inhibition",Potency
Cc1ccc(-c2nnn(CC(=O)NC3CC4CCC3C4)n2)cc1 (centres undefined),inconclusive: 1.99%,–
COc1cccc(CNc2nc3nc(C)c(Cl)c(C)n3n2)c1,–,"inconclusive: 23.1 µM [falling, partial curve]"
CC(C)CCNC(=O)Cc1ccc(Nc2nc(=S)[nH]c3ccccc23)cc1,inactive: 6.95%,–
COc1ccc(N(C(=O)CNC(=O)c2cccs2)C(C(=O)NCC2CCCO2)c2ccccc2)cc1OC (centres undefined),inactive: 9.89%,–
Cc1cc(C)cc(NC(=O)C(OC(=O)C2=COCCO2)c2ccccc2)c1 (centres undefined),inconclusive: 0.201%,–
COc1ccc(/C(O)=C2\C(=O)C(=O)N(Cc3ccco3)C2c2cc(OC)ccc2OC)cc1 (centres undefined),inactive: 2.13%,–
COc1ccc(-c2ccc(CCC(=O)O)n2Cc2ccco2)cc1,–,"inconclusive: 12.6 µM [rising, partial curve, poor fit]"
O=C(c1ccc(S(=O)(=O)N2CCCCCC2)cc1)N1CCN(c2ccccc2)CC1,inactive: 6.84%,–
CCc1noc(C)c1C(=O)N(CC)CC(=O)NCc1ccc(Cl)cc1,inconclusive: -2.63%,–
CCOC(=O)C1CCN(C(=O)COc2ccc3c(c2)OCO3)CC1,–,"inconclusive: 31.6 µM [rising, partial curve]"
COc1ccc(Cl)cc1N(CC(=O)NC(C)(C)C)S(=O)(=O)c1ccc(C)c([N+](=O)[O-])c1,inactive: 2.21%,–
O=[N+]([O-])c1cccc(CN2CCN(c3cccc4[nH]ccc34)CC2)c1,inconclusive: -0.172%,–
CC(C)CCNC(=O)[C@H](Cc1ccccc1)N1Cc2ccccc2C1=O,inactive: -6.4%,–
CCCCNC(=O)Nc1nnc(-c2ccccc2)o1,–,"inconclusive: 6.51 µM [falling, single point]"
Cc1oc(-c2cccc(Cl)c2)nc1CS(=O)(=O)CC(=O)NCCN1CCCC1,–,"inconclusive: 7.94 µM [falling, partial curve, poor fit]"
Cc1[nH]c2ccccc2c1/C=N/NC(=O)CNC(=O)c1cccs1,–,"inconclusive: 12.6 µM [falling, partial curve]"
Cc1ccc(S(=O)(=O)N2CCCC(c3nnc4n3-c3ccccc3SC4)C2)cc1 (centres undefined),inactive: 12%,–
Cc1csc(NC(=O)CCC(=O)N(CC(=O)NC2CCCC2)Cc2ccccc2)n1,inconclusive: -20.2%,–
Cc1cc2nc(-c3ccccn3)c(-c3ccccn3)nc2cc1C,inconclusive: 0.72%,–
COc1cc(OC)cc(C(=O)NCc2cc(C)nc3ccccc23)c1,–,"inconclusive: 17.8 µM [falling, single point]"
O=S(=O)(/C=C/c1ccccc1)Oc1ccccc1,inactive: 20.6%,–

# Entries of single compounds from above. Values in the order: activity change, negative = inhibition | Potency
# CCOC(=O)C1CCN(C(=O)COc2ccc3c(c2)OCO3)CC1 reads – | inconclusive: 31.6 µM [rising, partial curve]
# COc1cccc(CNc2nc3nc(C)c(Cl)c(C)n3n2)c1 reads – | inconclusive: 23.1 µM [falling, partial curve]

# (continued)

SMILES,"activity change, negative = inhibition",Potency
Cc1ccccc1NC(=O)CSc1nnc(-c2ccoc2C)n1CCc1ccccc1,inconclusive: 2.33%,–
CCCCN(C)CCCNC(=O)C1(O)c2ccccc2NC(=O)N1c1ccc(Cl)cc1 (centres undefined),inconclusive: -17.5%,–
CCOc1ccc(NC(=O)NC(=O)N(C(C)C)S(C)(=O)=O)cc1,inactive: 4.37%,–
O=C1C=C(c2ccc(Cl)c(C(F)(F)F)c2)C[C@@H](c2ccc(Cl)cc2)C1,inconclusive: 12.3%,–
CCOc1ccc(/C=C/C(=O)NC2CCCCC2)cc1,inconclusive: 1.54%,–
COCCCNC(=S)N1CCC(NC(=O)Nc2ccc(C)cc2)CC1,inconclusive: 2.25%,–
COc1ccc2oc(C(=O)N3CCN(S(=O)(=O)c4cccc([N+](=O)[O-])c4)CC3)c(C)c2c1,inconclusive: 2.84%,–
CC(=O)Oc1ccc2oc(C)c(C(=O)N3CCOCC3)c2c1,inconclusive: 4.9%,–
Cc1ccccc1NC(=O)CN(C)S(=O)(=O)c1cccc2nsnc12,inactive: -11.1%,–
COc1ccc(S(=O)(=O)N2CCCCCC2)cc1NC(=O)CN1C(=O)NC(C)(c2ccc(C)cc2)C1=O (centres undefined),inconclusive: 4.66%,–
O=C(Nc1ncc(Cc2cccc(Cl)c2)s1)C1CCCO1 (centres undefined),inconclusive: 14.8%,–
CC(=O)Nc1nc(NC(=O)C(Cl)(Cl)Cl)n(-c2ccccc2)n1,inconclusive: 9%,–
C=CCNc1oc(/C=C/c2ccccc2)nc1C#N,inconclusive: -2.23%,–
O=C(O)CC1(CC(=O)NCc2ccc(Cl)cc2)CCCCC1,inconclusive: 8.97%,–
COc1cccc(NC(=O)c2ccco2)c1,–,"inconclusive: 20.6 µM [falling, single point]"
COc1ccccc1CN1C(=NC(=O)CCC2CCCC2)SC2CS(=O)(=O)CC21 (centres undefined),inactive: 0.871%,–
CN(c1ccccc1)S(=O)(=O)c1ccc(NC(=S)Nc2ccccc2)cc1,inconclusive: 5.89%,–
COc1cccc(-c2nnc(NC(=O)c3ccc(S(=O)(=O)N4CC(C)OC(C)C4)cc3)o2)c1 (centres undefined),–,"inconclusive: 1.64 µM [falling, partial curve, poor fit]"
O=C(NCCCNC(=O)c1cccs1)c1cccs1,inactive: -1.63%,–
O=C(CCC(=O)Nc1nnc(C2CCCCC2)s1)Nc1ccc(F)cc1,inconclusive: -3.66%,–
CC1(C)Cc2c(C#N)c(N3CCCC3)nc(-c3ccco3)c2CO1,inconclusive: 13.7%,–

SMILES,"activity change, negative = inhibition",Potency
CC1CC(C)CN(S(=O)(=O)c2ccc3c(c2)CCN3C(=O)C2CC2)C1 (centres undefined),inconclusive: 3.71%,–
O=C(CN1CCN(Cc2ccccc2)CC1)Nc1ccccc1-c1ccccc1,inactive: -6.49%,–
Cc1nc2sccc2c(=O)n1N,inactive: 3.77%,–
COc1ccccc1N1CCN(C(=O)CSc2nnc3c4ccccc4nc(Cc4ccccc4)n23)CC1,inconclusive: -14.3%,–
CC/C(=N\NC(=S)NC(C)C)c1ccc(OC)c(OC)c1,–,"inconclusive: 35.5 µM [cytotoxic, single point]"
COc1cc(/C=N\NC(=O)c2ccc(Cn3nc([N+](=O)[O-])c(Cl)c3C)o2)ccc1O,–,"inconclusive: 16.4 µM [falling, partial curve]"
CCOC(=O)C1=C(c2cccc(Oc3ccccc3)c2)NC(=S)NC1C (centres undefined),inconclusive: -3.44%,–
c1ccc(Cc2ccc(OCCCNC3CCCC3)cc2)cc1,inactive: -2.8%,–
O=C(CN(c1ccccc1)S(=O)(=O)c1ccccc1)Nc1ccccc1C(=O)NCc1ccco1,inconclusive: 23.7%,–
O=S(=O)(c1ccc(C2CCCCC2)cc1)N1CCCC1,inconclusive: 0.281%,–
Cc1ccc(NC(=O)COC(=O)c2sccc2C)cc1S(=O)(=O)N1CCOCC1,–,"inconclusive: 23.1 µM [falling, partial curve]"
CCN1/C(=C/c2ccc3cc(C)ccc3[n+]2C)Sc2ccc3sccc3c21,inconclusive: 18.2%,–
Cc1ccc(NC(=O)CSc2nccn2Cc2ccco2)cc1,inactive: -4.93%,–
Cc1ccc(C)c(S(=O)(=O)N2CCCOC2CNC(=O)C(=O)NC2CCCCC2)c1 (centres undefined),inconclusive: -23.9%,–
Cc1cccc(-c2noc(CCC(=O)Nc3ccccc3)n2)c1,–,"inconclusive: 6.51 µM [rising, partial curve]"
Cc1sc2nc(-c3ccccc3)oc(=O)c2c1C,–,"inconclusive: 1 µM [falling, full curve]"
COc1ccc(NC(=O)CCCC(=O)c2ccccc2)cc1,inconclusive: 3.75%,–
Cc1nc(C(=O)N(C)C)nn1-c1ccc(Cl)cc1Cl,inactive: -13.3%,–
Cc1cnc(CN(C)C(=O)CC2C(=O)NCCN2CCCc2ccccc2)[nH]1 (centres undefined),inactive: 0.354%,–
Cc1ccn2c(NC(=O)C(C)(C)Oc3ccc(Cl)cc3)c(-c3cccs3)nc2c1,inconclusive: 1.92%,–
COc1ccc(C(=O)N/N=C/c2ccc(OC)c(CN3CCCc4ccccc43)c2)cc1,inconclusive: -10.7%,–

# Random excerpt: two records from the list
SMILES,"activity change, negative = inhibition",Potency
Cc1ccn2c(NC(=O)C(C)(C)Oc3ccc(Cl)cc3)c(-c3cccs3)nc2c1,inconclusive: 1.92%,–
c1ccc(Cc2ccc(OCCCNC3CCCC3)cc2)cc1,inactive: -2.8%,–

# (further entries)

SMILES,"activity change, negative = inhibition",Potency
CCCc1nnc(NC(=S)Nc2ccccc2)s1,inconclusive: 155% [cytotoxic],–
CCOC(=O)C1=NNC2(c3ccc(Cl)cc3)C(=O)N(c3ccc(C)cc3)C(=O)C12 (centres undefined),inconclusive: 3.34%,–
Cc1ccccc1C(=O)c1cccn1CC(=O)NC(C)c1ccc2c(c1)OCCO2 (centres undefined),inconclusive: -8.06%,–
CCOC(=O)c1nc2c(ccc3ccccc32)cc1C,inconclusive: 11.1%,–
NC(N)=Nc1nc(-c2ccccc2)c2cc(F)ccc2n1,inconclusive: 0.968%,–
Clc1ccccc1OCc1nn2c(-c3ccncc3)nnc2s1,inconclusive: 11.9%,–
CC(C)CC(=O)NC(=S)Nc1ccc(N2CCN(C(=O)c3cccs3)CC2)cc1,inconclusive: -1.53%,–
CCOC(=O)c1c(NC(=O)C2CCCN(S(=O)(=O)c3ccccc3)C2)sc2c1CCCC2 (centres undefined),inactive: 0.156%,–
N#Cc1c(C(F)(F)F)cc(-c2ccco2)nc1SCc1ccncc1,inconclusive: -0.139%,–
O=C(CN1CCC(C(O)(c2ccccc2)c2ccccc2)CC1)Nc1cc(Cl)ccc1Cl,inactive: -0.409%,–
COc1ccccc1N(C(=O)c1snc(C(N)=O)c1N)C(C(=O)NCc1ccccc1)c1ccc(O)cc1 (centres undefined),inactive: -2.17%,–
O=[N+]([O-])c1ccc(Nc2ccccc2O)c2nonc12,inconclusive: 1.38%,–
CCCC12CN3CC(C)(CN(C1)C31CCCCC1)C2=O,inconclusive: 8.89%,–
O=C(NCCN1C(=O)S/C(=C\c2ccc(Cl)c([N+](=O)[O-])c2)C1=O)C1=COCCO1,inconclusive: -15.5%,–
COc1cccc(-c2nn(C)c3sc(C(=O)NCc4ccc(C)cc4)cc23)c1,inactive: 12.7%,–
O=C(NC1(C(=O)NC2CCCCC2)CCCCC1)c1ccc2c(c1)OCO2,inconclusive: 13.1%,–
O=C1CC2(CCN(C(=O)c3cccc(Br)c3)CC2)Oc2ccccc21,inactive: -9.77%,–
CCOC(=O)c1c(C)n(C)c2ccc(OCC(O)CNCCc3ccccc3)cc12 (centres undefined),inactive: -13.7%,–
CN(C)CCCN(C(=O)COc1ccccc1)c1nc2ccc(F)cc2s1,inconclusive: -26.9%,–
CN1CCN(c2ccccc2NC(=O)c2ccc(N3CCCCC3)c([N+](=O)[O-])c2)CC1,–,"inconclusive: 7.08 µM [falling, full curve]"
COc1ccc(S(=O)(=O)N2CCCCCC2)cc1C(=O)Nc1cccc(C)n1,inconclusive: 4.42%,–
